Experimental data: PubChem BioAssay AID2685 (National Center for Advancing Translational Sciences (NCATS), 2010)
This is one part of the list. Shown are side measurements of this screen, not its main read-out; they come without a call. The list favours compounds with an active or inconclusive main result. The note in brackets gives the kind of curve behind each potency; many fits are weak.

Test: qHTS Assay for Lipid Storage Modulators in Drosophila S3 Cells;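 as to cell number change: cells counted by Cell Tracker Red CMTPX staining in the red channel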
Details: BODIPY lipid droplet fluorescence, 18-24 h; for cell number change: measured here: cell count max response, cells fed with added oleic acid
Outline: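 Drosophila S3 cells loaded with oleic acid (400 uM, as added) and compounds at several concentrations; lipid droplets imaged by 488-nm laser-scanning cytometry, 500–530 nm intensity and object ratio to cell channel. Percent activity normalized to 20 uM Triacsin C.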

[1] = measured here: cell number channel AC50, cells fed with added oleic acid
[2] = measured here: lipid fluorescence (Fed channel) AC50, cells fed with added oleic acid

Row | Compound | cell number change [%] | AC50 [1] | AC50 [2]
1 | O=C(O)c1cc(N/N=C/c2ccc(N3CCOCC3)cc2)ccc1Cl | 15.1 |  | 
2 | O=C(Cc1ccccc1)N/N=C/c1ccc2cccc(O)c2n1 | -45.8 | 16.4 µM [falling, single point] | 25.9 µM [falling, partial curve, poor fit]
3 | O=C(O)c1cccc(Nc2c3ccccc3nc3ccccc23)c1 | -31.5 | 14.6 µM [falling, single point] | 
4 | COC(=O)c1sc(-c2cccs2)cc1N | 40.8 | 18.4 µM [rising, single point] | 
5 | Cn1nc(-c2ccc(Cl)cc2)c2cc(C(=O)N3CCN(C(=O)c4ccco4)CC3)sc21 | -85.1 | 29.1 µM [falling, single point] | 29.1 µM [falling, single point]
6 | CC1CC(C)CN(c2cc(N(C)CCO)c([N+](=O)[O-])c3nonc23)C1 (stereo not given) |  | 6.51 µM [rising, single point] | 
7 | CCc1noc(C)c1C(=O)NCCc1ccc(OC)c(OC)c1 | -13.8 |  | 
8 | Cc1n[nH]c(=O)c2c(NC(=O)CSc3nncn3C(C)C)oc(C)c12 | 14.1 |  | 6.51 µM [falling, single point]
9 | N#Cc1c(-c2ccco2)nc(SCC(=O)Nc2cccc(Cl)c2)[nH]c1=O | -14.5 | 6.51 µM [falling, single point] | 6.51 µM [falling, single point]
10 | Cc1ccc2nc(N3CCN(C(=O)c4ccc(F)cc4)CC3)c(C#N)cc2c1 | 1.81 |  | 29.1 µM [falling, single point]
11 | O=C(CCn1cnc(-c2ccccc2)c1-c1ccccc1)N/N=C/c1ccc(O)cc1 | 16.9 |  | 16.4 µM [rising, single point]
12 | CCN(CC(=O)Nc1ccccc1OC)C(=O)C1CC2C=CC1C2 (stereo not given) | 0.557 | 6.51 µM [rising, single point] | 1.16 µM [falling, full curve]
13 | Cc1ccc(Cl)c(OCC(O)CN(CCO)CCO)c1 (stereo not given) | -33.9 | 29.1 µM [falling, single point] | 2.31 µM [rising, partial curve, poor fit]
14 | Cn1c(Cc2ccccc2)nnc1SCC(=O)Nc1cccc(S(=O)(=O)NC2=NCCCCC2)c1 | 10.7 |  | 
15 | CNS(=O)(=O)c1ccc(NC(=O)Nc2cccc(F)c2)cc1 | -41.1 | 16.4 µM [falling, partial curve, poor fit] | 
16 | C/C(=N\NC(N)=O)C1(C)CCCCC1 | -53.2 | 29.1 µM [falling, single point] | 3.66 µM [falling, partial curve]
17 | O=C(CNC(=O)Cc1ccccc1)N=Nc1c(O)[nH]c2ccccc12 | 22.2 |  | 
18 | CN(Cc1c(C(=O)N/N=C/c2ccccc2F)nnn1-c1nonc1N)c1ccccc1 | -18.3 |  | 16.4 µM [falling, partial curve, poor fit]
19 | Cc1ccc(C)c(OCc2cc(C(=O)N(C)Cc3nccn3C)no2)c1 | 0.984 |  | 4.11 µM [rising, single point]

Row | Compound | cell number change [%] | AC50 [1] | AC50 [2]
20 | Cn1c(SCC(=O)Nc2ccccc2F)nnc1-c1cc2ccccc2o1 | 25 |  | 
21 | Cc1ccc(CNC(=O)COC(=O)c2ccc(Br)cc2)cc1 | -47.1 | 0.411 µM [falling, full curve, poor fit] | 0.731 µM [falling, full curve, poor fit]
22 | COc1ccc(-c2nc(S(=O)(=O)c3ccccc3)c(N3CCOCC3)o2)cc1 | 18.4 |  | 2.06 µM [rising, full curve]
23 | O=S(=O)(c1ccc(Br)c2nsnc12)N1CCOCC1 | 3.69 |  | 0.164 µM [rising, full curve, poor fit]
24 | O=C(COC(=O)COc1ccc(Cl)cc1Cl)NC1CCCC1 |  |  | 29.1 µM [rising, single point]
25 | O=c1cc(-c2c(F)c(F)c(F)c(F)c2F)oc2c(F)c(F)c(F)c(F)c12 | -53.5 | 2.91 µM [falling, partial curve] | 8.2 µM [falling, partial curve]
26 | CCN1CCN(C(=O)CCc2nc3ccccc3n2-c2ccccc2)CC1 | 42.6 |  | 18.4 µM [rising, single point]
27 | CC(C)C[C@H](NC(=O)c1nc[nH]c1C(=O)N1CCNCC1)C(=O)OCc1ccccc1 | -9.29 |  | 29.1 µM [rising, single point]
28 | CC1=CC(C#N)(C#N)C(C#N)(C#N)C(c2ccccc2)N1 (stereo not given) | -1.29 |  | 
29 | CN1CCN(C(=O)c2cc(=O)c3cc(Cl)ccc3o2)CC1 |  |  | 20.6 µM [rising, single point]
30 | Cc1ccc(S(=O)(=O)N2CCC(C(=O)OCC(=O)N3CCCC(C)C3)CC2)cc1C (stereo not given) | -50 | 6.51 µM [rising, partial curve, poor fit] | 2.06 µM [rising, single point]
31 | COc1cccc(OCC(O)CNC(=O)c2oc3ccc(C)cc3c2C)c1 (stereo not given) | -5.51 |  | 29.1 µM [rising, single point]
32 | COc1ccccc1NC(=O)CSc1ccc(-c2ccc(-n3ccnc3)cc2)nn1 | -14.5 | 3.26 µM [rising, single point] | 4.11 µM [rising, single point]
33 | Cc1ccc(CSc2nnc(-c3ccncc3)n2N)cc1 |  | 2.31 µM [rising, partial curve] | 
34 | CC(C)CC(=O)Nc1ccc(S(=O)(=O)NCc2ccco2)cc1 | -29.8 | 0.13 µM [falling, full curve, poor fit] | 0.326 µM [falling, partial curve, poor fit]
35 | O=C(Nc1ccccc1)N1CC=C(c2ccc(F)cc2)CC1 |  | 3.26 µM [rising, partial curve] | 6.51 µM [rising, single point]
36 | CC1(C)Cc2c(sc(NC(=O)C(=O)N3CCCCC3)c2C(=O)O)CO1 | 74.6 | 29.1 µM [rising, single point] | 
37 | CCN(CC)S(=O)(=O)c1ccc(OC)c(NC(=S)Nc2ccc(C)c(C)c2)c1 |  | 0.82 µM [falling, single point] | 3.26 µM [rising, full curve]

Ordered by length of the SMILES (low to high): some entries from above.
Row | Compound | cell number change [%] | AC50 [1] | AC50 [2]
35 | O=C(Nc1ccccc1)N1CC=C(c2ccc(F)cc2)CC1 |  | 3.26 µM [rising, partial curve] | 6.51 µM [rising, single point]
28 | CC1=CC(C#N)(C#N)C(C#N)(C#N)C(c2ccccc2)N1 (stereo not given) | -1.29 |  | 
26 | CCN1CCN(C(=O)CCc2nc3ccccc3n2-c2ccccc2)CC1 | 42.6 |  | 18.4 µM [rising, single point]
31 | COc1cccc(OCC(O)CNC(=O)c2oc3ccc(C)cc3c2C)c1 (stereo not given) | -5.51 |  | 29.1 µM [rising, single point]
36 | CC1(C)Cc2c(sc(NC(=O)C(=O)N3CCCCC3)c2C(=O)O)CO1 | 74.6 | 29.1 µM [rising, single point] | 
22 | COc1ccc(-c2nc(S(=O)(=O)c3ccccc3)c(N3CCOCC3)o2)cc1 | 18.4 |  | 2.06 µM [rising, full curve]
37 | CCN(CC)S(=O)(=O)c1ccc(OC)c(NC(=S)Nc2ccc(C)c(C)c2)c1 |  | 0.82 µM [falling, single point] | 3.26 µM [rising, full curve]
25 | O=c1cc(-c2c(F)c(F)c(F)c(F)c2F)oc2c(F)c(F)c(F)c(F)c12 | -53.5 | 2.91 µM [falling, partial curve] | 8.2 µM [falling, partial curve]
